Reference: PubChem BioAssay AID652272 (Drosophila RNAi Screening Center, 2013)

- Screen: 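Genes whose knock-down decreases or increases Hedgehog reporter output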 (primary screen)
- Cells: Drosophila clone 8 (Cl8) cells
- Reagents: long dsRNA against Drosophila genes
- Measured: 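Firefly light from a Hedgehog-responsive ptc promoter reporter and Renilla reference light, both read on a plate reader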
- Direction: firefly Hh reporter signal: higher = more ptc reporter light; Renilla reference signal: higher = more Renilla control light
- Active means: 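Hit when the z-score averaged over two replicates is under -2 or over +3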
- Meaning of the calls: active = hit: reporter lowered or raised; inactive = not a hit
In all, the deposit lists about 21,000 reagents; shown is a random part of those with a known target gene and a result. In the full data, 503 (2.4%) got an active call. 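Raw plate light values, not normalised; calls rest on replicate z-scores that were not deposited; hits include reporter decreases as well as increases.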 Reagent sequences are not shown. Not stated in the record: the amount of reagent, the time to read-out.

firefly Hh reporter signal, replicate 1 | firefly Hh reporter signal, replicate 2 | firefly Hh reporter signal, replicate 3 | Renilla reference signal, replicate 1 | Renilla reference signal, replicate 2 | Outcome | gene knocked down | amplicon
4.04e5 | 2.49e5 | – | 19105 | 10756 | inactive | nur | DRSC01342
85275 | 2.08e5 | – | 1881 | 9908 | inactive | CG14190 | DRSC19545
1.32e5 | 99552 | – | 5913 | 3856 | inactive | CG9427 | DRSC16490
6.60e5 | 1.20e5 | – | 35868 | 3508 | inactive | Nlg4 | DRSC15108
4.89e5 | 79305 | – | 26273 | 2093 | inactive | Nlg4 | DRSC15109
4.79e5 | 71962 | – | 28122 | 2144 | inactive | Nlg4 | DRSC15700
2.22e5 | 19339 | – | 17522 | 957 | active | Nlg4 | DRSC15701
1.45e5 | 2.75e5 | – | 4112 | 12247 | inactive | lncRNA:CR43421 | DRSC05819
1.29e5 | 7.13e5 | 1.24e5 | 4234 | 42694 | inactive | Df31 | DRSC03738
1.31e5 | 72036 | – | 9057 | 3161 | active | hiw | DRSC20338
57163 | 1.30e5 | – | 1426 | 6726 | inactive | hiw | DRSC20339
93264 | 97251 | – | 2266 | 5378 | inactive | Cpr49Aa | DRSC07197
97686 | 61440 | – | 2459 | 5450 | inactive | Hmgcl | DRSC02051
69352 | 34557 | – | 2361 | 4096 | inactive | l(2)SH0834 | DRSC02854
7.59e5 | 1.15e5 | – | 4690 | 4690 | inactive | CG32488 | DRSC08549
1.45e5 | 5.31e5 | 1.24e5 | 4845 | 3253 | inactive | Ubx | DRSC16891
69824 | 48784 | – | 1947 | 3312 | inactive | ND-51L2 | DRSC07080
47047 | 52448 | – | 4999 | 3600 | inactive | mthl2 | DRSC10287
89555 | 41012 | – | 2436 | 1379 | inactive | Ir52b | DRSC06263
1.06e5 | 99652 | – | 3689 | 2752 | inactive | lush | DRSC11364
90509 | 65088 | – | 2134 | 1632 | inactive | CG31661 | DRSC00296

The list goes on; the last 4 above are carried over.
firefly Hh reporter signal, replicate 1 | firefly Hh reporter signal, replicate 2 | firefly Hh reporter signal, replicate 3 | Renilla reference signal, replicate 1 | Renilla reference signal, replicate 2 | Outcome | gene knocked down | amplicon
47047 | 52448 | – | 4999 | 3600 | inactive | mthl2 | DRSC10287
89555 | 41012 | – | 2436 | 1379 | inactive | Ir52b | DRSC06263
1.06e5 | 99652 | – | 3689 | 2752 | inactive | lush | DRSC11364
90509 | 65088 | – | 2134 | 1632 | inactive | CG31661 | DRSC00296
69899 | 85277 | – | 1837 | 2155 | inactive | CG12885 | DRSC14572
1.06e5 | 2.92e5 | – | 4429 | 11076 | inactive | CG14778 | DRSC17953
1.03e5 | 67320 | – | 2572 | 5312 | inactive | CheB42c | DRSC04972
1.38e5 | 90406 | – | 4528 | 3707 | inactive | Atu | DRSC12123
39568 | 46680 | – | 1220 | 1479 | inactive | stg | DRSC17071
2.18e5 | – | – | 5184 | – | inactive | CG32195 | DRSC09533
1.17e5 | 54144 | – | 4148 | 2155 | inactive | CG7509 | DRSC08596
85296 | 44935 | – | 2390 | 3658 | inactive | CG13875 | DRSC08345
1.32e5 | 1.69e5 | – | 5169 | 5345 | inactive | glob3 | DRSC12261
77976 | 67852 | – | 3461 | 3269 | inactive | CG5543 | DRSC04511
69968 | 98672 | – | 1114 | 2933 | inactive | CG3534 | DRSC15494
1.29e5 | 1.06e5 | – | 5915 | 4278 | inactive | CG30089 | DRSC06126
56007 | 11281 | – | 1221 | 97 | inactive | CG30089 | DRSC06127
1.71e5 | 52035 | – | 4016 | 1152 | inactive | CG30089 | DRSC06267
6.18e5 | 96144 | – | 4155 | 4155 | inactive | CG30089 | DRSC06268
1.20e5 | 80730 | – | 5144 | 3824 | inactive | CG9948 | DRSC11104
1.52e5 | 1.15e5 | – | 6741 | 5008 | inactive | Trhn | DRSC08621
1.19e5 | 36678 | – | 3483 | 3744 | inactive | CG16743 | DRSC02514
